Assay results reported in the supplement of paper PMC12889115.
Some of the results follow. Values are raw readings; no control value is given beside them.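 First-pass screen: polymyxin B was added at a level that permeabilizes the Salmonella outer membrane while sparing the inner membrane. DMSO wells, with and without polymyxin B, defined maximum growth. Because plates differed from one another, each plate's data were ranked separately and the compounds with the lowest OD600 were carried forward as hits.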

Tested on: Salmonella enterica serovar Typhimurium SL1344
Assay: bacterial growth OD600 after 18 h with compound and polymyxin B; higher = more bacterial growth (less inhibition)
Details: 50 µM, Mueller-Hinton broth

CCCN(Cc1cnc(S(=O)(=O)C(C)C)n1Cc1ccccc1F)CC1CC1
bacterial growth OD600 (polymyxin B 1 µg/mL): 0.006

COC(=O)C1CCCCN1C(=O)c1c(OC)cc(=O)n2c1CCN(Cc1cccc(Cl)c1)CC2 (stereo not drawn)
bacterial growth OD600 (polymyxin B 0.75 µg/mL): 0.826

Cc1ccc2oc(C(=O)N3CCN(c4cccc(C)n4)CC3)c(C)c2c1
bacterial growth OD600 (polymyxin B 1 µg/mL): 0.404

COCC(=O)Nc1cc(C(=O)NCCCOC(C)C)c2c(c1)ncn2Cc1ccc(F)cc1
bacterial growth OD600 (polymyxin B 0.75 µg/mL): 0.828

Cc1nc(N2CCC(C(=O)NCCCn3ncc4ccccc43)CC2)nc2ccc(C(C)C)cc12
bacterial growth OD600 (polymyxin B 0.75 µg/mL): 0.627

Clc1cccc(CN2CCN(c3nc4nonc4nc3NC3CC3)CC2)c1
bacterial growth OD600 (polymyxin B 1 µg/mL): 0.891

Fc1ccc(F)c(CN(CC2CCN(C3CCCC3)CC2)CC2CCCO2)c1 (stereo not drawn)
bacterial growth OD600 (polymyxin B 1 µg/mL): 1.04

O=C(c1cccs1)N1CCC(C2CCN(Cc3cccnc3)CC2)C1 (stereo not drawn)
bacterial growth OD600 (polymyxin B 0.75 µg/mL): 0.83
